According to PubChem BioAssay AID1671190 (National Center for Advancing Translational Sciences (NCATS), 2021):
Where “and” joins values, the source holds several entries; their conditions need not be identical. Equal values may be shown once. In all, about 580,000 compounds went through this assay and about 6,100 (1.1%) were called active. The inconclusive results got no clear call from the source; some entries with a clear call stand among them for comparison. Calls come from the whole dose curve; as a rule, active = well fitted inhibition curve with a large enough effect; inconclusive = small, poorly fitted or top-dose-only effect, or another doubt; inactive = no such curve, though single readings can be large or run the other way. Where the call is inconclusive, the potency comes from a doubtful curve fit.

Sequences of proteins named here, by UniProt entry; tags and fusion partners are left off. A change or cut given only in a name is not applied to a line headed by its entry.
UniProt P18054: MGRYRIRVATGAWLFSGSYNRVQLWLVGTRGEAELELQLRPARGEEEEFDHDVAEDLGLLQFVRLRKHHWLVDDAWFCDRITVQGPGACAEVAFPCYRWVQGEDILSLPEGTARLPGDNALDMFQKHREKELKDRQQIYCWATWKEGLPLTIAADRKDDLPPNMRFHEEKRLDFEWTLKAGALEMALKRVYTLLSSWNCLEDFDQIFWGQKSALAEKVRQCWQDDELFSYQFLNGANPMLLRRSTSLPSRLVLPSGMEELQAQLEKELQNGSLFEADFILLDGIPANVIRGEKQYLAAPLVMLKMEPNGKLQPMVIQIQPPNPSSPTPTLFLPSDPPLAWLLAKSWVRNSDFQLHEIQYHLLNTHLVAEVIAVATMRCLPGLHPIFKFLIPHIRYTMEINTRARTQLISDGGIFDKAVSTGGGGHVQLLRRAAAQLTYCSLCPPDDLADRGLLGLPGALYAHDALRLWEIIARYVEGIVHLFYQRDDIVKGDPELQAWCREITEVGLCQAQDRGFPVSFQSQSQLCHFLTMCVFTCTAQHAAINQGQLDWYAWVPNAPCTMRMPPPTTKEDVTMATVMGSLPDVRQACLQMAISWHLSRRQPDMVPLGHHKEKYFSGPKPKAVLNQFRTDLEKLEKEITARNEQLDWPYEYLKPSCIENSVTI

What follows are molecules tested against Polyunsaturated fatty acid lipoxygenase ALOX12 (Homo sapiens) (UniProt P18054) (assay: Primary qHTS assay for inhibitors of human arachidonate 12S-lipoxygenase (ALOX12): Round 2). Conditions: purified 12hLO, xylenol orange hydroperoxide absorbance; activity change, negative = inhibition: at 108 µM (top of the series) unless noted.
Procedure, shortened: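 Purified human 12hLO (150 nM final) in 25 mM Hepes, 0.01% Triton X-100, pH 7.0 was preincubated 15 min at room temperature with compound. Then 40 uM arachidonic acid was added, 30 min. Hydroperoxide was read by Fe-XO absorbance ratio 573/405 nm.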
% is set by controls: 0 for no effect and ±100 for the full control effect; potency is the fitted concentration of half-maximal effect.

Row | SMILES | Potency | activity change, negative = inhibition
1 | S=C(NCc1ccco1)Nc1cccc(Cl)c1 | inconclusive: 56.2 µM [inhibitor, partial curve, poor fit] | 
2 | CCN(CC)c1ccc(NC(=O)c2cnc3ccccn3c2=O)c(C)c1 | inconclusive: 2.82 µM [inhibitor, full curve, poor fit] | 
3 | O=C(CCCN1CCC(O)(c2ccc(Br)cc2)CC1)c1ccc(F)cc1 | inconclusive: 2.28 µM [inhibitor, partial curve] and inconclusive: 12.6 µM [inhibitor, full curve] | 
4 | O=c1cc(CN2CCCCCCC2)c2c(ccc3ccccc32)o1 | inconclusive: 31.6 µM [inhibitor, partial curve, poor fit] | 
5 | O=C(O)/C(=C\c1ccc(-c2ccccc2[N+](=O)[O-])o1)c1ccccc1 | inconclusive: 39.8 µM [inhibitor, partial curve, poor fit] | 
6 | C=CCN1C(=O)C2(OCCCO2)c2cc(CCCC)ccc21 |  | inactive: 0.33%
7 | C#CCOCCOCCOCCNc1nc(N2CCN(C(=O)[C@H]([C@@H](C)CC)n3cc(CCC(=O)O)nn3)CC2)nc(N2CCN(C(=O)[C@H](CCCCN)n3cc(CCCC)nn3)CC2)n1 | inconclusive: 44.7 µM [inhibitor, partial curve, poor fit] | 
8 | COCCOCc1nc(C2CCCCN2C(=O)Nc2cccc(Cl)c2)no1 (configuration not stated) |  | inactive: 44.5%
9 | C=CCC[C@H](Cc1ccc(F)cc1)C(=O)OC[C@@H](Cc1c[nH]c2ccccc12)NC(=O)[C@@H](CC=C)CC(=O)N[C@@H](CO)Cc1ccccc1 | inconclusive: 50.1 µM [inhibitor, partial curve, poor fit] | 
10 | Cc1cc(C(=O)Nc2cccc3c2O[C@@H](CN(C)S(C)(=O)=O)[C@H](C)CN([C@@H](C)CO)C3=O)n(C)n1 |  | inactive: 1.25%
11 | COc1cccc(-c2noc(C3CCCN(C(=O)Cc4ccccc4)C3)n2)c1 (configuration not stated) |  | inactive: -11.2%
12 | NC(=O)c1ccc(Oc2ccc3c(c2)CCC3)c([N+](=O)[O-])c1 |  | inactive: -0.53%
13 | Cc1cc(CN(C)C(=O)CC(c2cccc(O)c2)c2ccccc2Cl)n[nH]1 (configuration not stated) | inconclusive: 39.8 µM [inhibitor, single point] | 
14 | O=C(C1CCCC1)N1CC2(CCN(Cc3c[nH]c4ccccc34)CC2)Cc2ccccc21 | inconclusive: 50.1 µM [inhibitor, partial curve, poor fit] | 
15 | CCCCCN(C(=O)CCC(=O)OCCOc1cccc(Cl)c1)c1c(N)n(CCCC)c(=O)[nH]c1=O | inconclusive: 50.1 µM [inhibitor, partial curve, poor fit] | 
16 | CCn1c(SCC(=O)NNC(=O)c2ccccc2)nnc1-c1ccncc1 | inconclusive: 44.7 µM [inhibitor, partial curve, poor fit] | 
17 | CC(C)(C)c1ccc(-c2nc(NCc3cccnc3)c3ccccc3n2)cc1 |  | inactive: -8.53%
18 | FC(F)(F)c1ccc(CN2CCCC3(CC(c4cccnc4)=NO3)C2)cc1 (configuration not stated) | inconclusive: 10 µM [inhibitor, full curve, poor fit] | 
19 | COc1cc(C(=O)OCCO)ccc1OCc1ccc(Cl)cc1 |  | inactive: -3.15%
20 | c1ccc(-c2cnc(SCCN3CCOCC3)n2CC2CCCO2)cc1 (configuration not stated) | inconclusive: 0.447 µM [inhibitor, full curve, poor fit] | 
21 | CCOc1cc(/C=C(\C#N)c2nc3ccccc3[nH]2)ccc1OC(C)C | inconclusive: 112 µM [inhibitor, single point] | 

Row | SMILES | Potency | activity change, negative = inhibition
22 | Cc1c2c(nc3ccccc13)CC(C)(C)CC2=O | inconclusive: 31.6 µM [inhibitor, single point] | 
23 | COc1cccc(Nc2ncc3nc(CCc4ccccc4)c(=O)n(Cc4cccs4)c3n2)c1 | inconclusive: 79.4 µM [inhibitor, single point] | 
24 | S=C(NCc1ccc(Cl)cc1)NC1CC2CCC1C2 (configuration not stated) | inconclusive: 50.1 µM [inhibitor, partial curve, poor fit] | 
25 | C/C=C/c1ccc(OCC(O)CN(C)Cc2ccc(SC)cc2)c(OC)c1 (configuration not stated) | inconclusive: 3.98 µM [inhibitor, full curve] | 
26 | COCc1cc(C)nc2sc(C(=O)N3CCCCC3)c(N)c12 | inconclusive: 8.91 µM [inhibitor, full curve, poor fit] | 
27 | Cc1cc(Br)c2nc(-c3cccc(Br)c3)c(Cc3cccc(Cl)c3)n2c1 |  | inconclusive: -46.2% [inhibitor]
28 | CCn1c(=S)sc2c(=O)n(CC(=O)Nc3ccc(C(C)=O)cc3)c(C)nc21 | inconclusive: 35.5 µM [inhibitor, partial curve, poor fit] | 
29 | O=C(COC(=O)COc1ccc(Cl)cc1)Nc1ccc2c(c1)OCCO2 | inconclusive: 100 µM [inhibitor, single point] | 
30 | CCOC(=O)C1=CNS(=O)(=O)NC1c1ccc2ccccc2c1 (configuration not stated) | active: 31.6 µM | 
31 | CCCS(=O)(=O)N1CCCC1c1noc(CCC(=O)N2CCN(C)CC2)n1 (configuration not stated) |  | inactive: 2.08%
32 | CC(=O)ON(C(C)=O)S(=O)(=O)c1ccc(Cl)cc1 | inconclusive: 12.6 µM [inhibitor, partial curve, poor fit] | 
33 | COc1ccccc1C(=O)N1CCC2(CC1)CC(=O)c1ccc(Cl)cc1O2 | inconclusive: 35.5 µM [inhibitor, partial curve, poor fit] | 
34 | CCOc1cc(C2NN=C(c3ccccc3)S2)ccc1OCc1ccc(F)cc1 (configuration not stated) | inconclusive: 2.82 µM [inhibitor, full curve, poor fit] | 
35 | Cc1cc(C(c2ccc(Cl)cc2Cl)N2CCOCC2)c(NC(=O)c2ccco2)s1 (configuration not stated) |  | inactive: -28.3%
36 | CC(=O)c1ccc(NC(=O)C2CC(c3ccc(F)cc3)=NO2)cc1 (configuration not stated) | inconclusive: 35.5 µM [inhibitor, single point] | 
37 | CC(=O)Nc1cc(C(=O)Nc2ccc3c(c2)N(C)C(=O)c2ccccc2S3)ccc1C | inconclusive: 158 µM [inhibitor, partial curve, poor fit] | 
38 | COc1ccc(CCNC(=O)C2c3ccccc3C(=O)N2CCC(C)C)cc1OC (configuration not stated) | inconclusive: 1.58 µM [inhibitor, partial curve, poor fit] | 
39 | O=C(CN1CCC(C(O)(c2ccccc2)c2ccccc2)CC1)Nc1ccccc1 |  | inactive: -13.5%
40 | CSc1nc(SCC(=O)NC(c2ccccc2)c2ccccc2)c2c3c(sc2n1)CN(C)CC3 | inconclusive: 79.4 µM [inhibitor, partial curve, poor fit] | 
41 | O=C1c2ccccc2C(=O)N1CCCOc1ccccc1 |  | inactive: 10.7%
42 | COc1cccc2c1OCC(CNC(=O)Cn1nc(C)c(C)cc1=O)C2 (configuration not stated) |  | inactive: 30%

Pulled by compound from the list above (2):
Row | SMILES | Potency | activity change, negative = inhibition
35 | Cc1cc(C(c2ccc(Cl)cc2Cl)N2CCOCC2)c(NC(=O)c2ccco2)s1 (configuration not stated) |  | inactive: -28.3%
23 | COc1cccc(Nc2ncc3nc(CCc4ccccc4)c(=O)n(Cc4cccs4)c3n2)c1 | inconclusive: 79.4 µM [inhibitor, single point] | 

(next part)

Row | SMILES | Potency | activity change, negative = inhibition
43 | CCCc1ccc(NC(=O)c2nccnc2N)cc1 |  | inactive: 26.7%
44 | CCOC(=O)c1cnc2c(OC)cccc2c1Nc1ccc(C)cc1 | inconclusive: 25.1 µM [inhibitor, partial curve, poor fit] | 
45 | CCOc1ccccc1NC(C)C(=O)N(C)Cc1cccc(F)c1 (configuration not stated) |  | inactive: -2.71%
46 | O=C(NC1CC1)c1cc2n(n1)CCCN(C(=O)c1ccccc1-c1ccccc1)C2 |  | inactive: -21%
47 | CCCc1c(C)nc2ncnn2c1Nc1ccccc1 |  | inactive: 8.29%
48 | Cc1ccc(CNCC2CN(C)CCO2)o1 (configuration not stated) | inconclusive: 8.91 µM [inhibitor, full curve, poor fit] | 
49 | CNCC[C@H](Oc1cccc2ccccc12)c1cccs1 | inconclusive: 15.3 µM [inhibitor, partial curve] | 
50 | COc1ccc(CN2CCn3c(nn(-c4ccc(F)cc4F)c3=O)C2)cc1 | inconclusive: 17.8 µM [inhibitor, full curve] | 
51 | Cc1ccc(-c2cn(-c3ccccc3)c(=S)[nH]2)cc1C | active: 35.5 µM | 
52 | COc1ccc(CCn2c(-c3ccc(C(C)(C)C)cc3)n[nH]c2=S)cc1OC | inconclusive: 44.7 µM [inhibitor, partial curve, poor fit] | 
53 | COc1ccccc1C(=O)N1CCn2c(nn(-c3cccc(Cl)c3)c2=O)C1 |  | inactive: 7.79% [at 6.33 µM]
54 | COc1ccc(C(=O)Nn2c(C)nc3ccccc3c2=O)cc1Br | inconclusive: 70.8 µM [inhibitor, single point] | 
55 | COc1ccc(OC)c(S(=O)(=O)N2CCCCCCNC(=O)CC2)c1 | inconclusive: 3.16 µM [inhibitor, full curve] | 
56 | COc1ccc(NC(=O)COc2ncnc3ccccc23)cc1Cl | inconclusive: 100 µM [inhibitor, single point] | 
57 | OC[C@H]1O[C@@H]2O[C@H]3[C@H](O)[C@@H](O)[C@@H](O[C@H]4[C@H](O)[C@@H](O)[C@@H](O[C@H]5[C@H](O)[C@@H](O)[C@@H](O[C@H]6[C@H](O)[C@@H](O)[C@@H](O[C@H]7[C@H](O)[C@@H](O)[C@@H](O[C@H]8[C@H](O)[C@@H](O)[C@@H](O[C@H]9[C@H](O)[C@@H](O)[C@@H](O[C@H]1[C@H](O)[C@H]2O)O[C@@H]9CO)O[C@@H]8CO)O[C@@H]7CO)O[C@@H]6CO)O[C@@H]5CO)O[C@@H]4CO)O[C@@H]3CO |  | inactive: -0.263%
58 | Cc1cc(Nc2ccccc2)nc2cc(O)ccc12 | inconclusive: 89.1 µM [inhibitor, partial curve, poor fit] | 
59 | CC(Cc1cccs1)N(Cc1ccccc1)C(=O)c1ccc(C#N)cc1 (configuration not stated) | inconclusive: 44.7 µM [inhibitor, partial curve, poor fit] | 
60 | COc1ccc(C(=O)Nc2nc(CC(=O)NCc3c(F)cccc3F)cs2)cc1 | inconclusive: 100 µM [inhibitor, single point] | 
61 | CCn1c(C(=O)O)c(S(=O)(=O)c2ccc(Cl)cc2)c2ccccc21 | inconclusive: 39.8 µM [inhibitor, partial curve, poor fit] | 
62 | CC(C)(C)c1ccc(-n2ncc3c2CCCC3NC(=O)c2cnccn2)cc1 (configuration not stated) |  | inactive: 39.6%
